Patent US11096968B2, “Use of anti-aging glycoprotein for enhancing survival of neurosensory precursor cells” (PROTOKINETIX INC., priority 2016, dated 2021)
At least one compound was matched to its structure with a doubt left.

Test system: photoreceptor precursor cells (PPCs)
Assay: PPC survival in ex vivo co-culture system, viable labelled PPCs counted by FACS
Format: cell-based, human
Details: PPCs pre-treated 24 hours with 4 mg/ml AAGP, 10 days of co-culture; n=4; untreated 18%; p<0.05
Procedure: FIG. 3 illustrates that Cell survival is enhanced by pre-incubation with AAGP™. Untreated or AAGP™-treated PPCs are fluorescently labelled and placed between retinal explants and RPE for ten days (n=4). Live PPCs are separated by Fluorescence-Activated Cell Sorting and the proportion of cells surviving after 10 days of co-culture was calculated. Percent cell survival of untreated and AAGP-treated PPCs was plotted ( ? ) and for each condition the average±SEM is represented by a thick black line.
To determine whether AAGP™ improves PPC survival in the ex vivo system, PPC cell viability is assessed with and without pre-treating cell grafts with AAGP™ for 24 hours prior to inclusion within the ex vivo system. PPCs are labelled with 20 μM CellTrace™ Far Red DDAO-SE (Life Technologies). […] After 10 days, the components of the co-culture system are enzymatically dissociated into single cell suspensions and the number of viable PPCs is assessed by Fluorescence-Activated Cell Sorting (FACS; Influx Sorter; BD Biosciences).
Finally, the viability of PPCs in the ex vivo system is tested. […] Ten days later, the co-cultured components were dissociated into single cells and viable PPCs (labeled red) were separated by Fluorescence activated cell sorting (FACS, FIG. 3). The proportion of live cells remaining after 10 days of co-culture is calculated. […]

C[C@H](NC(=O)[C@H](C)NC(=O)[C@@H](N)CCCCNC(=O)C(F)(F)C1(O)O[C@H](CO)[C@H](O)[C@H](O)[C@H]1O)C(=O)O (stereo partly shown) [AAGP™]
average cell viability (proportion of live PPCs remaining): 49%
